Assay [1] addresses human PLA2G2D (human) (UniProt Q9UNK4). The assay is described as follows: assay not given.
Assay [2] shares this target. In words: ELISA / flow cytometry screening of hybridoma antibodies. In general terms: In an ELISA, binding on a coated surface is turned into a signal by an enzyme label.

Amino acid sequences for entries named in this document (tags omitted). A change or cut given only in a name is not applied to a line headed by its entry.
UniProt Q9UNK4: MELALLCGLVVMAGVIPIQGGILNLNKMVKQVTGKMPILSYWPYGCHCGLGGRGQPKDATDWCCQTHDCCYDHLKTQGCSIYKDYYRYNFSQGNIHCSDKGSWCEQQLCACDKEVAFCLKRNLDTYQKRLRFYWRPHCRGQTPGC

Numbering of substitutions follows the chain as printed. Results are given in words; binding and its absence hold for the method and conditions named. Some binding calls cover weakened binding; strength is not graded here.

B1: 48.51A2.B12 (antibody, V domains shown)
VH: QVTLKESGPGILQPSQTLSLTCSFSGFSLSTYAMGVGWIRQPSGKGLEWLANIWWDDDKFYNPSLKNRLTISRDTSTNQAFLKITNVDSADTATYYCSRLGVRWSHYFDYWGQGVMVTVSS
VL: DIQMTQSPSSLSASLGDRVTITCRASQDIGNFLSWFQQKPGKSPRLMIYGATNLEDGVPSRFSGSRSGSDYSLTISSLESEDTAIYYCLQYEKYFTFGSGTKLEIK
As to B1, the binding entry in assay [1] and in assay [2] was “binds” throughout.

B2: 47.25C3.C5 (antibody, V domains shown)
VH: QVTLKESGPGILQSSQTLSLTCSFSGFSLSTSRMGVSWIRQSSRKGLEWLAHIYWDDDKRYDPSLKSRLTISKDTSRNQVFLKITSVDTADTATYYCARRALSDYGSDFYFDVWGTGTTVTVSS
VL: QIVLTQSPAIMSASPGEKVTISCSASSIVSYMYWYQQKPGSSPKPWIYRTSTLASGVPARFSGSGSGTSYSLTISSMEAEDAATYYCQQYHTYPLTFGAGTKLELK
On to B2, for which the binding result in assay [1] and in assay [2] was “binds” in each case.

B3: 44.19B8.H11 (antibody, V domains shown)
VH: QVTLKESGPGILQSSQTLSLTCSFSGFSLSTSSMGVSWIRQPSGKGLEWLAHIYWDDDKRYNPSLKSRLTISKDTSRNQVFLKISNVDTADAATYYCARRAGNFFYFDVWGTGTTVTVSS
VL: B2 VL with I28S, T52N, L95P, A99G, L105I
For the molecule B3, the binding result in assay [1] and in assay [2] was “binds” each time.

B4: 44.91D1.E4 (antibody, V domains shown)
VH: QVTLKESGPGTLQSSQTLSLTCSFSGFSLNTSTMGVSWIRQPSGKGLEWLAHIYWDDDKRYNPSLKSRLTISKDTSRNQVFLKITSVDTADTATYYCARRRVYDFDFDYWGQGTTLTVSS
VL: B2 VL with I28S, T52N, Y86F, T92S, L95P, A99G, L105I
For B4, the binding entry in assay [1] and in assay [2] was “binds” in each case.

B5: 48.26G10.A9 (antibody, V domains shown)
VH: QVQLQQSGAELAKPGSSVKISCKASGYTFTTYAMHWIKQTTGQALEWTGYIGPGSGSTWYNENFKGKATLTVDKSSSTAYMQLSSLTPADTAVYYCARGGYSGDDWFAYWGQGTLVTVSS
VL: DILMTQSPSSMSASLGDRVTITCQASQDIGNNLIWFQQKPGKSPRRMIYYATNLANGVPSRFSGSRSGSDYSLTIISLESEDMADYHCLQYKQSPLTFGSGTKLEIK
With B5, the binding entry in assay [1] and in assay [2] was “binds” throughout.

B6: 48.73A4.B6 (antibody, V domains shown)
VH: EVQLVESGGGLVQPGRSLKLSCVASGFTFNNYWMTWIRQAPGKRLEWVASITDTGGITYYPDSVKGRFTISRDNAKNTLYLQMNSLRSEDTATYYCTRRDLPGYQWDYWGQGVMVTVSS
VL: SYELIQPPSASVTLENTVSITCSGDELSNKYALWYQQKPDKTILEVMYKDSERPSGISDRFSGSSSGTTAILTIRDAQAEDEADYYCLSTYSDDDLPVFGGGTKLTVL
Regarding B6, the binding result in assay [1] and in assay [2] was “binds” in each case.

B7: 48.74C11.G4 (antibody, V domains shown)
VH: EVQLVESGGGLVQPGRSLKLSCAASGFTYSNYVMVWVRQAPTKGLEWVASISAGGDDTYYRDSVKGRFTISRDNAKNTLYLQMDTLRSEDTATYYCARDMGNSGSYCFDYWGQGVMVTVSS
VL: DIQMTQSPASLSASLGEIISIECLASEGISSCLAWYQQKPGKSPQLLIYGGNNLQIGVPSRFSGSGSGTQYSLKISNMQPEDEGDYFCQQSYKFPYTFGAGTKLELK
In the case of B7, the binding entry in assay [1] and in assay [2] was “binds” throughout.

B8: 44.64E1.B12 (antibody, V domains shown)
VH: DVQLQESGPGLVKPSQSLSLTCSVTGYSITSGYYWNWIRQFPGNKLEWMGYISYDGSNNYNPSLKSRISITRDTSKNQFFLKLNSVTTEDTATYYCARWGYYDSRIDYWGQGTTLTVSS
VL: ETTVTQSPASLSMAIGEKVTIRCITSTDIDDDMNWFQQKPGEPPKLLISEGNTLRPGVPSRFSSNGSGTDFVFTIENMLSEDVADYYCLQSDNLPFTFGAGTKVELK
B8: the binding entry in assay [1] and in assay [2] was “binds” each time.

B9: 48.7C11.D10.D2 (antibody, V domains shown)
VH: EVQLVESGGGLVQPGRSMKLSCAALGFTFSNYYMAWVRQAPTKGLEWVASISTGGGITYFRDSVKGRVTLSRDNEKSTLYLQMDSLRSEDTATYYCARHDYGGSYWYFDFWGPGTMVTVSS
VL: DIVMTQTPSSQAVSAGEKVTMNCKSSQSLLYNENKKNYLAWYQQKPGQSPKLLIYWASSRESGAPDRFIGSGSGTDFTLTISSVQAEDLAVYYCQQYYNFPYTFGAGTKLELK
Regarding B9, the binding result in assay [1] and in assay [2] was “binds” in each case.
